Taken from: PubChem BioAssay AID652259 (Drosophila RNAi Screening Center, 2013)
In all, the deposit lists about 22,000 reagents; this is a random part of those that have a named target and a result. Of all reagents, 233 (1.1%) were called active. 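Light values are raw, unnormalised plate reads; the ratio scores behind the reporter calls were not deposited.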 The record does not give: the amount of reagent, the time to read-out, the dose of the treatment.

Aim: 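Knock-downs that push a Wingless-driven reporter up or down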 (primary screen)
System: Drosophila clone 8 imaginal disc epithelial cells
Knock-down reagent: long dsRNA against Drosophila genes
Treatment: pathway stimulated by co-transfected Wingless expression plasmid
Read-out: 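Dual luciferase reads per well after Wingless plasmid stimulation: reporter firefly light and Renilla control light; activity is firefly divided by Renilla, a ratio not deposited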
Direction: firefly reporter light: higher = more Wg reporter light, before normalisation; Renilla control light: higher = more transfected or surviving cells
Rule for the call: 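Strong candidates differ from their plate mean by at least two out of four per-plate statistical tests; weak candidates meet just one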
Meaning of the calls: active = candidate regulator (raises or lowers reporter); inactive = not a candidate

With knock-down of Atox1 (Antioxidant 1 copper chaperone) [DRSC22416] the results were firefly reporter light, replicate 1 = 6.70e5; firefly reporter light, replicate 2 = 6.65e5; Renilla control light, replicate 1 = 2.19e5; Renilla control light, replicate 2 = 67929; inactive.
Ir67c (Ionotropic receptor 67c) [DRSC22097] scored firefly reporter light, replicate 1 = 6.34e5; firefly reporter light, replicate 2 = 6.64e5; Renilla control light, replicate 1 = 2.42e5; Renilla control light, replicate 2 = 2.41e5; inactive.
Silencing of Dsk (Drosulfakinin) [DRSC12347] resulted in: firefly reporter light, replicate 1 = 9370; Renilla control light, replicate 1 = 3401; inactive.
CG17321 [DRSC02598] showed firefly reporter light, replicate 1 = 2026; firefly reporter light, replicate 2 = 6458; Renilla control light, replicate 1 = 491; Renilla control light, replicate 2 = 3008; inactive.
For Atg2 (Autophagy-related 2) [DRSC08273], the entry reads firefly reporter light, replicate 1 = 15413; Renilla control light, replicate 1 = 4936; inactive.
After knock-down of Osi19 (Osiris 19) [DRSC12569] the results were firefly reporter light, replicate 1 = 12040; Renilla control light, replicate 1 = 4162; inactive.
CG3337 [DRSC15478] scored firefly reporter light, replicate 1 = 4074; Renilla control light, replicate 1 = 1125; inactive.
After knock-down of CG32074 [DRSC22246], the screen gave firefly reporter light, replicate 1 = 6.14e5; firefly reporter light, replicate 2 = 6.25e5; Renilla control light, replicate 1 = 2.35e5; Renilla control light, replicate 2 = 2.95e5; inactive.
Silencing of mr (morula) [DRSC04332] gave: firefly reporter light, replicate 1 = 17170; Renilla control light, replicate 1 = 6419; inactive.
Knock-down of mr (morula) [DRSC22856] came out at: firefly reporter light, replicate 1 = 6.62e5; firefly reporter light, replicate 2 = 7.80e5; Renilla control light, replicate 1 = 2.15e5; Renilla control light, replicate 2 = 2.98e5; inactive.
bur (burgundy) [DRSC03163] showed firefly reporter light, replicate 1 = 8256; Renilla control light, replicate 1 = 2570; inactive.
For Eig71Ei [DRSC11156], the values are firefly reporter light, replicate 1 = 10145; Renilla control light, replicate 1 = 4516; inactive.
With knock-down of kirre (kin of irre) [DRSC18785] the results were firefly reporter light, replicate 1 = 18288; Renilla control light, replicate 1 = 12699; inactive.
Against Acp26Aa (Accessory gland protein 26Aa) [DRSC01855], the values are firefly reporter light, replicate 1 = 2320; firefly reporter light, replicate 2 = 5840; Renilla control light, replicate 1 = 784; Renilla control light, replicate 2 = 1753; inactive.
Depletion of CG33144 [DRSC06132] came out at: firefly reporter light, replicate 1 = 10395; Renilla control light, replicate 1 = 2421; inactive.
After knock-down of CG33144 [DRSC07024], the screen gave firefly reporter light, replicate 1 = 4262; firefly reporter light, replicate 2 = 8624; Renilla control light, replicate 1 = 1105; Renilla control light, replicate 2 = 4547; inactive.
Against Vps36 (Vacuolar protein sorting 36) [DRSC09785], the values are firefly reporter light, replicate 1 = 6242; Renilla control light, replicate 1 = 1971; inactive.

Reprinted from the listing (3 entries):
mr (morula) [DRSC04332] → firefly reporter light, replicate 1: 17170; Renilla control light, replicate 1: 6419; activity call: inactive
mr (morula) [DRSC22856] → firefly reporter light, replicate 1: 6.62e5; firefly reporter light, replicate 2: 7.80e5; Renilla control light, replicate 1: 2.15e5; Renilla control light, replicate 2: 2.98e5; activity call: inactive
bur (burgundy) [DRSC03163] → firefly reporter light, replicate 1: 8256; Renilla control light, replicate 1: 2570; activity call: inactive
